{"source": "patent US5354903A", "about": "(Ionics, Incorporated, priority 1992, dated 1994)", "experiment": "Addition of caustic to a heated slurry of MBA, homogeneity of solution", "assay_type": "physicochemical", "settings": "upon cooling to room temperature", "note": "At least one structure is not confirmed: it was looked up by name or label, or the drawing left a doubt."}
{"smiles": "C=CC(=O)NCNC(=O)C=C", "note": "[MBA, methylenebisacrylamide]", "values": [{"measurement": "homogeneity of solution after addition of small amounts of caustic to heated slurry", "value": "remains homogeneous"}]}
